# Results from article doi:10.1101/2023.07.12.548668.
# Amino acid sequences for entries named in this document (tags omitted). A change or cut given only in a name is not applied to a line headed by its entry.
# UniProt P49917: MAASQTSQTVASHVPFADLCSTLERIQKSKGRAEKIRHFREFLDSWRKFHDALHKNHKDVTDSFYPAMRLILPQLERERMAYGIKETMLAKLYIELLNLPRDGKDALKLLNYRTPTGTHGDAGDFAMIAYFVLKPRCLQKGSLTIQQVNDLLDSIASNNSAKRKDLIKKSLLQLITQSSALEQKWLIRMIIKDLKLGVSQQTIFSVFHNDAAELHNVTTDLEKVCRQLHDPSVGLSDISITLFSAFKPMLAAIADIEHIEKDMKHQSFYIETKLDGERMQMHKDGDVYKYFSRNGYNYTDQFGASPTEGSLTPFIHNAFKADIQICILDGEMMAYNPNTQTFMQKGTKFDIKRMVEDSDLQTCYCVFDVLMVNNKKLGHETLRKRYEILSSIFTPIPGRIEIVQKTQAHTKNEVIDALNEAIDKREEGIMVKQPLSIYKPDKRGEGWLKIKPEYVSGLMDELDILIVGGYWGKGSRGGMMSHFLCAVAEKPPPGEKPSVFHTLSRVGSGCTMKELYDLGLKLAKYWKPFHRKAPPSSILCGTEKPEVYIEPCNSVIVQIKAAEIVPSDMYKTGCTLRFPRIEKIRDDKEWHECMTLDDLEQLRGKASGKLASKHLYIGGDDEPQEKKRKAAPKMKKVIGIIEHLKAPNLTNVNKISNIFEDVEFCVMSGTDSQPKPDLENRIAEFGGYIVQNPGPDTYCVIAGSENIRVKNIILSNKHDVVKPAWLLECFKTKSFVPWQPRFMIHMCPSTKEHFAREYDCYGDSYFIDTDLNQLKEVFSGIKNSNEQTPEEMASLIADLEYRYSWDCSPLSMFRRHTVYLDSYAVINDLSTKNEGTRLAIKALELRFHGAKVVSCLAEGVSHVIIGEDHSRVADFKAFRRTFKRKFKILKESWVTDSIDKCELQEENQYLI
# UniProt Q96SD1: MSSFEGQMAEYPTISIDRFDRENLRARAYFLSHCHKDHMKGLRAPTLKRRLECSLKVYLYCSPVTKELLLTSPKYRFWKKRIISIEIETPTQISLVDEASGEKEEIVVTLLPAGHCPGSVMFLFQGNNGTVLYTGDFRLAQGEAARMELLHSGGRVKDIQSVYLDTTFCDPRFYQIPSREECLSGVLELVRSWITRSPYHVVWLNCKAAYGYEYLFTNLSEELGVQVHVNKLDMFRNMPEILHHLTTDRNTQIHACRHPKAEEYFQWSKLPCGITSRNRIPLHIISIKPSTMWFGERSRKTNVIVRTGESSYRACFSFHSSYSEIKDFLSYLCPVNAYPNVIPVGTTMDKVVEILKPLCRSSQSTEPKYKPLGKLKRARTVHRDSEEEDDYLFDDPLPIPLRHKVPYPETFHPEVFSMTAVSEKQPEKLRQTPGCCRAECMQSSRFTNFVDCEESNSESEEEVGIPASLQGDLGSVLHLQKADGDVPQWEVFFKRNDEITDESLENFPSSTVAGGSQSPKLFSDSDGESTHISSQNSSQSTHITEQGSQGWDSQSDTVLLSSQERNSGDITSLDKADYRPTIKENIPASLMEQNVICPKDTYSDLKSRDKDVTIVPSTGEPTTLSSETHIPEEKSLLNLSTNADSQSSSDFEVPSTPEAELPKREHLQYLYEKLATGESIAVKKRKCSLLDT
# Biological target: DNA binding domain (DBD) of LIG4 (UniProt P49917)
# Assay: NMR titration; competition: 1H-15N HSQC of XRCC4CTR alone or in the presence of DBD of LIG4 and ArtCTR; peak of F333; both purified
substance,measurement,value
Artemis C-terminal region (ArtCTR) (from UniProt Q96SD1) (domain or fragment),binding,binds

# These are yes or no findings as the source states them, for the method shown. A result given as binding can be weak or reduced; the word gives no strength.
